PubChem BioAssay AID1508587 – Peter MacCallum Cancer Centre | 2020
Screen: 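Retest of knockdowns boosting BRAF inhibitor action on lactate release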 (follow-up of hits). Cells: human WM266.4 melanoma cells with a BRAF V600 mutation. Knock-down reagent: single siRNA against human genes, 25 nM. Duration: 96 h. Treatment: vemurafenib 300 nM (about IC25), given 48 h after transfection for 48 h. Detection: 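Medium lactate read by absorbance over DAPI-counted nuclei; ratio with versus without vemurafenib, set against non-targeting siRNA, averaged over 2 replicates; cell number also recorded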. Reading the numbers: lactate per cell, drug vs no drug: higher = less drug-induced drop in lactate per cell. Active means: 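a duplex is active when its lactate-per-cell ratio with versus without drug falls under 0.55, i.e. 2 SD below non-targeting; a gene is confirmed if 2 or more of 4 duplexes pass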.
This is a random part of about 1,600 reagents tested. 623 of all reagents (39%) were called active. 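Calls are for each duplex; lactate ratios contain extreme outliers.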 Entries without a mark were called inactive. The numbers tell different reagents against one gene apart. Not all columns of the deposit are shown.

CT47A2 (GeneID 728090) #1 showed lactate per cell, drug vs no drug 0.6. CT47A2 (GeneID 728090) #2 showed lactate per cell, drug vs no drug 0.84. Against CT47A2 (GeneID 728090) #3, the values are lactate per cell, drug vs no drug 0.8. CT47A2 (GeneID 728090) #4 scored lactate per cell, drug vs no drug 0.39 (active). After knock-down of RGS2 (GeneID 5997) #1, the record shows lactate per cell, drug vs no drug 0.92. RGS2 (GeneID 5997) #2 gave lactate per cell, drug vs no drug 0.58.

For RGS2 (GeneID 5997) #3 the deposit lists lactate per cell, drug vs no drug 0.3 (active). Depletion of RGS2 (GeneID 5997) #4 gave: lactate per cell, drug vs no drug 0.74. Knock-down of KRTAP2-4 (GeneID 85294) #1 resulted in: lactate per cell, drug vs no drug 0.62. Depletion of KRTAP2-4 (GeneID 85294) #2 resulted in: lactate per cell, drug vs no drug 0.62. KRTAP2-4 (GeneID 85294) #3 gave lactate per cell, drug vs no drug 0.57. Silencing of KRTAP2-4 (GeneID 85294) #4 gave: lactate per cell, drug vs no drug 0.55.

2 entries already listed, arranged by “lactate per cell, drug vs no drug”, low to high.
KRTAP2-4 (GeneID 85294) #3 — lactate per cell, drug vs no drug = 0.57
KRTAP2-4 (GeneID 85294) #2 — lactate per cell, drug vs no drug = 0.62

The results go on:
Knock-down of PHEX (GeneID 5251) #1 gave: lactate per cell, drug vs no drug 0.7. Knock-down of PHEX (GeneID 5251) #2 came out at: lactate per cell, drug vs no drug 0.45 (active). Depletion of PHEX (GeneID 5251) #3 gave: lactate per cell, drug vs no drug 0.62. For PHEX (GeneID 5251) #4 the deposit lists lactate per cell, drug vs no drug 0.68. After knock-down of GLYR1 (GeneID 84656) #1, the record shows lactate per cell, drug vs no drug 0.78. Depletion of GLYR1 (GeneID 84656) #2 resulted in: lactate per cell, drug vs no drug 0.63.

Depletion of GLYR1 (GeneID 84656) #3 came out at: lactate per cell, drug vs no drug 0.72. Silencing of GLYR1 (GeneID 84656) #4 gave: lactate per cell, drug vs no drug 0.82.
